Test results as given in publication PMC7819943, “Rice protein-binding microarrays: a tool to detect cis-acting elements near promoter regions in rice”.
The list shows a part of the results.

The chains behind the UniProt entries cited, without tags or fusion partners.
UniProt Q0JBA9, entry or part of it: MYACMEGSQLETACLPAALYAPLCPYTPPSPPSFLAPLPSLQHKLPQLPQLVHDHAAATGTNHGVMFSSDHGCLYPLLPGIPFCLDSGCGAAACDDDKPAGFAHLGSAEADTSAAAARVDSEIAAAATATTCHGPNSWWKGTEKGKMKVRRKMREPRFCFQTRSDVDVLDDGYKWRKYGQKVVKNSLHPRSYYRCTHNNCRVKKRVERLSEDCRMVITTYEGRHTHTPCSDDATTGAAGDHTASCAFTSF

The sequences below were run against OsWRKY34 (Oryza sativa, UniProt Q0JBA9 1-250) (assay: protein-binding microarray (RPBM); PBS, 2% BSA, 51.3 ng/ul salmon testes DNA, 50 uM zinc acetate, 200 nM TF, 25 C, 1 h; high values mean tight binding). Settings: protein: recombinant; tags: N-terminal polyhistidine and DsRed monomer fusion (pET32a); label: CyDye5-dUTP incorporated in the synthesized complementary strand; 3' TTTTT single-stranded linker to array surface; dsDNA, one strand shown.
Procedure, shortened: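 Binding signal is reported as fluorescence intensity per feature (arbitrary units) from an Axon 4000B scanner. Incubation used 200 nM of each Ni–NTA-purified, N-terminally polyhistidine- and DsRed-fused transcription factor from E. coli BL21-CodonPlus on a double-stranded custom Agilent array for 1 h at 25 °C, with 50 µM zinc acetate in the buffer, followed by washing.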
With “GCCTTCTAGACATAGTATTTCCTTGTTTCATTGTTTGTATCGGAGTCACCTAGTGCAG” the binding signal was 9430 fluorescence intensity (a.u.). With “TAGGGGCTCCATCACATTCTCAGCACAGCCGACAAGTCGACGGAGTCACCTAGTGCAG” the binding signal was 8120 fluorescence intensity (a.u.). “CGATTCCCATGTTCCCTGCTTGACTTCGAACGCATTTGTCCGGAGTCACCTAGTGCAG” was tested, and the binding signal was 10200 fluorescence intensity (a.u.). With “TTCCTGGGCCAACCGTGCCCCGTCCACGGCCCATTTTTCACGGAGTCACCTAGTGCAG” the binding signal was 8060 fluorescence intensity (a.u.). “TATATATATATATATATATATATATATATATATAAAGAGACGGAGTCACCTAGTGCAG” was tested, and the binding signal was 11100 fluorescence intensity (a.u.). With “GGGTCCCACTAATTACTGCATTCTTTACCATTGTTCCAACCGGAGTCACCTAGTGCAG” the binding signal was 9560 fluorescence intensity (a.u.). With “GGTTTTGATGTTTGTTTTGGTTTTTGGATGTTTGCGAATTCGGAGTCACCTAGTGCAG” the binding signal was 8280 fluorescence intensity (a.u.). In the case of “TGAGCCATCGAGATTAATCTCGCCGTTTCTTCTGTAGTCGCGGAGTCACCTAGTGCAG”, the binding signal was 10900 fluorescence intensity (a.u.). With “GGTGTCCTTCCAAATTCGACTCTGCATCCCATACGCACACCGGAGTCACCTAGTGCAG” the binding signal was 8320 fluorescence intensity (a.u.). With “GTAGTCGCGTGGTCTCTGCAGGTCCACCCGCCCAATCATTCGGAGTCACCTAGTGCAG” the binding signal was 8670 fluorescence intensity (a.u.). For “CCGCTCTGATTCGCAAACTATAACACCAAACAAACGGGCGCGGAGTCACCTAGTGCAG”, the binding signal was 20100 fluorescence intensity (a.u.). In the case of “GCAGGCGGAGGCGGAGGCGGAGGCGGAGGCGGCGGCGGCGCGGAGTCACCTAGTGCAG”, the binding signal was 8950 fluorescence intensity (a.u.). In the case of “TTCCTTGTCCCATTACTACATCGTCGTTGTGTTCAACTATCGGAGTCACCTAGTGCAG”, the binding signal was 10600 fluorescence intensity (a.u.). “CTCGGGGCTTCTCCGGCTCCACCGCTCGCGCGCGTCCTTTCGGAGTCACCTAGTGCAG” was tested, and the binding signal was 9370 fluorescence intensity (a.u.). In the case of “TCTTTGTGTTCTTGCTCTCTCTCACCATTACACGTCGAATCGGAGTCACCTAGTGCAG”, the binding signal was 10300 fluorescence intensity (a.u.). With “CTCCTTTACCAACATACCTACGCATTAGTTTTATTATAAACGGAGTCACCTAGTGCAG” the binding signal was 8080 fluorescence intensity (a.u.). In the case of “CCCTACCTAGGGTAGGGTAGGGGTAGGGGTAGGGTTGATACGGAGTCACCTAGTGCAG”, the binding signal was 11900 fluorescence intensity (a.u.). For “TTGTGTTTTTTTTTCTCTTTCTTTTTCTTTTTATTTTCACCGGAGTCACCTAGTGCAG”, the binding signal was 10900 fluorescence intensity (a.u.). With “TTTCTCTCCACCACATATCTTCGTTCCTCAACCAGCGACGCGGAGTCACCTAGTGCAG” the binding signal was 8650 fluorescence intensity (a.u.). “AAAGAAAACTACTCACATACTGTATCATCTTTATTCTTGCCGGAGTCACCTAGTGCAG” was tested, and the binding signal was 8660 fluorescence intensity (a.u.). In the case of “AAGCACTCCACCTCTCACCACCGCAAGTCCGTAACCAACTCGGAGTCACCTAGTGCAG”, the binding signal was 10000 fluorescence intensity (a.u.). For “CTCACAACCGTCGCCGTCGCACGCCTACCCCGTCCCTCCGCGGAGTCACCTAGTGCAG”, the binding signal was 8130 fluorescence intensity (a.u.). For “AGTTTGTACAACATCTTTTTTTTGTTTCAGTTCGTTTCTTCGGAGTCACCTAGTGCAG”, the binding signal was 8110 fluorescence intensity (a.u.). “GGCCTGCCCAGTCCAGAGAGAAGGGTGTGTGTGTTTGTGACGGAGTCACCTAGTGCAG” was tested, and the binding signal was 8610 fluorescence intensity (a.u.). For “TACTTCCTGTATATACTTTTGCTTCATTCCTTATAATAGTCGGAGTCACCTAGTGCAG”, the binding signal was 11400 fluorescence intensity (a.u.). With “TCGTTCTTGTCGATCTCTGTGTGTGTTCTTCGTCGTCGTCCGGAGTCACCTAGTGCAG” the binding signal was 8190 fluorescence intensity (a.u.). “TAGTGTTTCTTGGCGGCAATGGTTTCTTTTCTCCTTTGACCGGAGTCACCTAGTGCAG” was tested, and the binding signal was 9970 fluorescence intensity (a.u.). “GCAACTCACGGTCACGGCCACCTCTTCAGCTTTACTTCCTCGGAGTCACCTAGTGCAG” was tested, and the binding signal was 10800 fluorescence intensity (a.u.). With “TCAACATGGCTGCCATCTACTGAGGTTCATTTTTCAGGTTCGGAGTCACCTAGTGCAG” the binding signal was 9510 fluorescence intensity (a.u.). With “ACGCCGCTCACACTCTGCCTATCTATTTGCATGGCATACTCGGAGTCACCTAGTGCAG” the binding signal was 13200 fluorescence intensity (a.u.). For “CCAACCGTCCTCCGGTCTCTCCTGTTCTTCGCTCGATCCTCGGAGTCACCTAGTGCAG”, the binding signal was 11300 fluorescence intensity (a.u.). For “GGCAATCAACTTGTGGCAAGGCGTGTGTGGTTTAAATATACGGAGTCACCTAGTGCAG”, the binding signal was 8320 fluorescence intensity (a.u.). In the case of “GTGGGTGTTTGCGAGCTTTTGTTCGTATGCTTTTTTACTTCGGAGTCACCTAGTGCAG”, the binding signal was 9960 fluorescence intensity (a.u.). In the case of “CCTACTTTCTTAATAACCGTATCCAACCCTATAACTTCTTCGGAGTCACCTAGTGCAG”, the binding signal was 8390 fluorescence intensity (a.u.). In the case of “GTCTATTTAATCCTGTATCACGCCCAGATTCCTGAGTCCACGGAGTCACCTAGTGCAG”, the binding signal was 8450 fluorescence intensity (a.u.). With “CAACGACGTGGGCTCGCGACTCCATCTTCCAGGCCTGCCCCGGAGTCACCTAGTGCAG” the binding signal was 11100 fluorescence intensity (a.u.). “CTTCCTCGCCGGCTCGCGCGGATTCGATGGGTTGTTGATTCGGAGTCACCTAGTGCAG” was tested, and the binding signal was 8550 fluorescence intensity (a.u.). In the case of “CCTTTTCTCCTCTTTCTTTCTTCACTAATCAATCAACTTACGGAGTCACCTAGTGCAG”, the binding signal was 8940 fluorescence intensity (a.u.). In the case of “TTTCTTCTCATCTAAGTAATGTGGGTGTTTCTTTGGGTTCCGGAGTCACCTAGTGCAG”, the binding signal was 9080 fluorescence intensity (a.u.). In the case of “ATTATTTTGGATCACCCTTTGTTTCCAATTTTTTCACTTTCGGAGTCACCTAGTGCAG”, the binding signal was 10400 fluorescence intensity (a.u.). “GAACAAACTTTCAAAAACATGTACTCTCTTTGTTTCATATCGGAGTCACCTAGTGCAG” was tested, and the binding signal was 10600 fluorescence intensity (a.u.). “CGCGCGGTCTCGCACTTTTATCACGTGATACCGTCCGTGACGGAGTCACCTAGTGCAG” was tested, and the binding signal was 9840 fluorescence intensity (a.u.).
